These are yes or no findings as the source states them, for the method shown. Binding seen in cells or lysates may run through a third protein. Some binding calls cover weakened binding; strength is not graded here.
Key:
SNAP-mGluR7 (rat) = SNAP-mGluR7 (rat) (UniProt P35400); experiment: FRET or BRET; single-molecule FRET (TIRF) between donor and acceptor BG dyes on the SNAP tags of the two subunits of a homodimer; receptors labelled on HEK293T cells, lysed in 1.2% IGEPAL, held on PEG-passivated coverslips by anti-mGluR2, anti-mGluR7 or anti-HA antibody; imaging buffer pH 7.4 with 0.04% IGEPAL; 0 to 100 mM glutamate
CLIP-mGluR2 (rat) = CLIP-mGluR2 (rat) (UniProt P31421); experiment: FRET or BRET; single-molecule FRET (TIRF) between a dye on the CLIP tag of mGluR2 and a dye on the SNAP tag of the co-expressed mGluR7 or mGluR4 subunit; receptors labelled on HEK293T cells, lysed in 1.2% IGEPAL, held on PEG-passivated coverslips by antibody; 0 to 100 mM glutamate, 1 uM LY379268 or 10 uM LSP4-2022
SNAP-mGluR8 (rat) = SNAP-mGluR8 (rat) (UniProt P70579); experiment: FRET or BRET; single-molecule FRET (TIRF) between donor and acceptor BG dyes on the SNAP tags of the two subunits of a homodimer; receptors labelled on HEK293T cells, lysed in 1.2% IGEPAL, held on PEG-passivated coverslips by anti-mGluR2, anti-mGluR7 or anti-HA antibody; imaging buffer pH 7.4 with 0.04% IGEPAL; 0 to 100 mM glutamate
SNAP-mGluR4 (rat) = SNAP-mGluR4 (rat) (UniProt P31423); experiment: as above
[1] = target: SNAP-mGluR7(mGluR4 residues 202–271) (rat) (UniProt P35400+P31423); experiment: as above
SNAP-mGluR2 (rat) = SNAP-mGluR2 (rat) (UniProt P31421); experiment: as above

The chains behind the UniProt entries cited, without tags or fusion partners. Where a name states a change or a piece, a line headed by the entry shows the natural chain unless it says otherwise. A line that says so, or that is headed by a name, gives the form on record, which may keep a tag or linker. Residues count along the entry.
SNAP-mGluR7 (P35400, residues 35-915): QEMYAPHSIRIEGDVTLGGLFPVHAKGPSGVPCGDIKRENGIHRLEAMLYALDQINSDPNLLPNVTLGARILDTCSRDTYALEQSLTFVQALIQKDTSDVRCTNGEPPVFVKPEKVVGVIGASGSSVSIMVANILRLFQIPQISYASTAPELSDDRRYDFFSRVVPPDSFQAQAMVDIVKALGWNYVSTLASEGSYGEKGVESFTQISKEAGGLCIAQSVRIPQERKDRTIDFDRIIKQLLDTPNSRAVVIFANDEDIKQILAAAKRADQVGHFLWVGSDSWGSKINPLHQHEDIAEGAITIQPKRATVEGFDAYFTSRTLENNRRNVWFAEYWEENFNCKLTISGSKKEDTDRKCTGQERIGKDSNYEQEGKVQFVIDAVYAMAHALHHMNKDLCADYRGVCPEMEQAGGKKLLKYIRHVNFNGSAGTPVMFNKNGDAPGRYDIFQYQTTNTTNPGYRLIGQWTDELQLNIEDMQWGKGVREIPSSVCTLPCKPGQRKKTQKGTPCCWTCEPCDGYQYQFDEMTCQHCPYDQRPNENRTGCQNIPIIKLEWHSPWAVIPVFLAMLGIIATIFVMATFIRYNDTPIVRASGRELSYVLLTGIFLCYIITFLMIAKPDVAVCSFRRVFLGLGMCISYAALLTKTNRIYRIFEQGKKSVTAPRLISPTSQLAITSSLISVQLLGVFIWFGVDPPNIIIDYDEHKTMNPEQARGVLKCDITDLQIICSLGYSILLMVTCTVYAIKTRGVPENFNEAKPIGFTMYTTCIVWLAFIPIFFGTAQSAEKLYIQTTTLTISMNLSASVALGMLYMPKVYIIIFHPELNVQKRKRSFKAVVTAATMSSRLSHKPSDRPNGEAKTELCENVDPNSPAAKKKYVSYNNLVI
SNAP-mGluR7(T131G, T137G, E140G) (P35400, form named): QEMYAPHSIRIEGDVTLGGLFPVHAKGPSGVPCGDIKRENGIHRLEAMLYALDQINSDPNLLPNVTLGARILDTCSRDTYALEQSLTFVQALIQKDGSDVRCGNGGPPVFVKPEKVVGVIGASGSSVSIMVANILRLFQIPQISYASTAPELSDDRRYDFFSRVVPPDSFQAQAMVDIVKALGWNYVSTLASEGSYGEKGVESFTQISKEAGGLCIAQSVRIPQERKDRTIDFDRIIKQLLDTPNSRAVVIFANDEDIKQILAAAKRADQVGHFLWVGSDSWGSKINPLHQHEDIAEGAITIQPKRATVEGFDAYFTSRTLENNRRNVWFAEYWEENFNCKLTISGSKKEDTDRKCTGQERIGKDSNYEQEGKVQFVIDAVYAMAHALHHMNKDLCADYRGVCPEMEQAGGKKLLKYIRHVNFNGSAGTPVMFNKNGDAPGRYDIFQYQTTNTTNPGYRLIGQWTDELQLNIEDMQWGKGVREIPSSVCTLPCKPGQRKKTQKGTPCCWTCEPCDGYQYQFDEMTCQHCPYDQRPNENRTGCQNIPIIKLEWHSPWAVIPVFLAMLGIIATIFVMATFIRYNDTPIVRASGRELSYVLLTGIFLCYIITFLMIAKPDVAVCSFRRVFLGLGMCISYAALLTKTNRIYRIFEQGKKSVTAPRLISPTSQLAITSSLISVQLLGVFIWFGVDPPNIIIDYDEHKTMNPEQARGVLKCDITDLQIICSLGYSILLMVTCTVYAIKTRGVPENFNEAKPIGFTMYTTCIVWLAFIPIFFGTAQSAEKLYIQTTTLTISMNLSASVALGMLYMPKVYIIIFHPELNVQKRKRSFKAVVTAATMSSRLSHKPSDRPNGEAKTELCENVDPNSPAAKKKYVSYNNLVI
UniProt P31421, residues 19-872: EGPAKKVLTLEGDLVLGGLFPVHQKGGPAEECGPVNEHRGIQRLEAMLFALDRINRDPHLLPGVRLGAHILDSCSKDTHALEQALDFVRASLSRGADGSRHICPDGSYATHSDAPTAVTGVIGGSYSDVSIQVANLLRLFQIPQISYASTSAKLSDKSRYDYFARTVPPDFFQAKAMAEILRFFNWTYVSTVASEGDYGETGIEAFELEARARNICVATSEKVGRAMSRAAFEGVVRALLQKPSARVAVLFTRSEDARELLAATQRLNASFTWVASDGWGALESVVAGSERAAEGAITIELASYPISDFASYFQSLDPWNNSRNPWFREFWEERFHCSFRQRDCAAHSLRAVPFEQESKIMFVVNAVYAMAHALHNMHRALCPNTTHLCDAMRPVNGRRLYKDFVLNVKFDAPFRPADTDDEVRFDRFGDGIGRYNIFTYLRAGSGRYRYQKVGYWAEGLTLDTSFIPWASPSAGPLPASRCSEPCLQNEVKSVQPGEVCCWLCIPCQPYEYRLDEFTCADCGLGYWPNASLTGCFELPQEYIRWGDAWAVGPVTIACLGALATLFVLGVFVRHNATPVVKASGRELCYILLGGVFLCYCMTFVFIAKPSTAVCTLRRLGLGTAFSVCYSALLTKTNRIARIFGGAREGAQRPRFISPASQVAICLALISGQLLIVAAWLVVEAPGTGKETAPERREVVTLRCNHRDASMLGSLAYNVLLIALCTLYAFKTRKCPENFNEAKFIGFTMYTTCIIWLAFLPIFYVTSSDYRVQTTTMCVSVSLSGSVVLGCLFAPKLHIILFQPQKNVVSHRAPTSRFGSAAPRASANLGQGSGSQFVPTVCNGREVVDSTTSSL
UniProt P70579, residues 34-908: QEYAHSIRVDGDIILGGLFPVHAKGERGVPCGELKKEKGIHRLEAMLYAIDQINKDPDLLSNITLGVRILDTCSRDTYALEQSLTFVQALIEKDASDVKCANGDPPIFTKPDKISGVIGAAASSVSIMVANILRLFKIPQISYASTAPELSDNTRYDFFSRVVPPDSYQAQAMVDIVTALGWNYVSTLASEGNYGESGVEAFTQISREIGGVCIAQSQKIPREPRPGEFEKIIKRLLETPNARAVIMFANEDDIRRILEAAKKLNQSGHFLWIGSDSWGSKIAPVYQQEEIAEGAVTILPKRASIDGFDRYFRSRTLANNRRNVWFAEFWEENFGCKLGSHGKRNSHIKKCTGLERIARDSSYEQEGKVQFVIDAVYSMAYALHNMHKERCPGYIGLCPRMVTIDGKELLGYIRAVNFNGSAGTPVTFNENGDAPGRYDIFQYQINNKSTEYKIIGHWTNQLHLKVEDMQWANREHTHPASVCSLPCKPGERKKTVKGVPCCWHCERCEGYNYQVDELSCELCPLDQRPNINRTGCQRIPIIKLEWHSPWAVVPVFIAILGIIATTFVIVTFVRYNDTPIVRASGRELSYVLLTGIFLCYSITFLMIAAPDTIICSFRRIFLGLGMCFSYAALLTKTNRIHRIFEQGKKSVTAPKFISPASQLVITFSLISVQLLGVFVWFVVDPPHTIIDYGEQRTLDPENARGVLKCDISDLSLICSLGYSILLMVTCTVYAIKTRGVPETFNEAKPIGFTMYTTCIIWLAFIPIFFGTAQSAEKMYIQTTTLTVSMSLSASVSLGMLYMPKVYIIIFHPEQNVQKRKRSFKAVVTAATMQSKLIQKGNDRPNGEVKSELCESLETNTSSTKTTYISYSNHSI
SNAP-mGluR4 (P31423, residues 33-912): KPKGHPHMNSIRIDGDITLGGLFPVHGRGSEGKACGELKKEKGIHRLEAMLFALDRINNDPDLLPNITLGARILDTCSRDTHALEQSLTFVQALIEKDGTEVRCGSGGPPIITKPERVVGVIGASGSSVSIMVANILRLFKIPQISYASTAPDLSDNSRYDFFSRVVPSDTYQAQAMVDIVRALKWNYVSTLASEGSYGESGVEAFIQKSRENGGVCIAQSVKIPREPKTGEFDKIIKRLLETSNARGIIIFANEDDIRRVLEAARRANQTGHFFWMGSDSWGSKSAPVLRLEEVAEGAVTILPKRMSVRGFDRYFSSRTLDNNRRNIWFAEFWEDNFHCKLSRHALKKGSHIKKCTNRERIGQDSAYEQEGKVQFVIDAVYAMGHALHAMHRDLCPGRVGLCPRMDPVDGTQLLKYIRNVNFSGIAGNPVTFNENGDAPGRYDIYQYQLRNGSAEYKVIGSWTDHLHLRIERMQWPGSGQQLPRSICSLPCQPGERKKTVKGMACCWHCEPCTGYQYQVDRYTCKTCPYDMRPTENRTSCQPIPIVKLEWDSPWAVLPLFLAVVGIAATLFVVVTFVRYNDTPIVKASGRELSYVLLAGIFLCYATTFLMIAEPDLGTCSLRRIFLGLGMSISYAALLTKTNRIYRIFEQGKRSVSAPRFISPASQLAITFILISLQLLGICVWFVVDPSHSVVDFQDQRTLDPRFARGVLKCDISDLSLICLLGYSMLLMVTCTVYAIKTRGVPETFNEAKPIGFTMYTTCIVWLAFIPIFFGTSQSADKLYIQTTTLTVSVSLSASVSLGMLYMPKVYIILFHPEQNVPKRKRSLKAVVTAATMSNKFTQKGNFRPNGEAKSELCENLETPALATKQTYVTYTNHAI
SNAP-mGluR4(G131T, G137T, G140E) (P31423, form named): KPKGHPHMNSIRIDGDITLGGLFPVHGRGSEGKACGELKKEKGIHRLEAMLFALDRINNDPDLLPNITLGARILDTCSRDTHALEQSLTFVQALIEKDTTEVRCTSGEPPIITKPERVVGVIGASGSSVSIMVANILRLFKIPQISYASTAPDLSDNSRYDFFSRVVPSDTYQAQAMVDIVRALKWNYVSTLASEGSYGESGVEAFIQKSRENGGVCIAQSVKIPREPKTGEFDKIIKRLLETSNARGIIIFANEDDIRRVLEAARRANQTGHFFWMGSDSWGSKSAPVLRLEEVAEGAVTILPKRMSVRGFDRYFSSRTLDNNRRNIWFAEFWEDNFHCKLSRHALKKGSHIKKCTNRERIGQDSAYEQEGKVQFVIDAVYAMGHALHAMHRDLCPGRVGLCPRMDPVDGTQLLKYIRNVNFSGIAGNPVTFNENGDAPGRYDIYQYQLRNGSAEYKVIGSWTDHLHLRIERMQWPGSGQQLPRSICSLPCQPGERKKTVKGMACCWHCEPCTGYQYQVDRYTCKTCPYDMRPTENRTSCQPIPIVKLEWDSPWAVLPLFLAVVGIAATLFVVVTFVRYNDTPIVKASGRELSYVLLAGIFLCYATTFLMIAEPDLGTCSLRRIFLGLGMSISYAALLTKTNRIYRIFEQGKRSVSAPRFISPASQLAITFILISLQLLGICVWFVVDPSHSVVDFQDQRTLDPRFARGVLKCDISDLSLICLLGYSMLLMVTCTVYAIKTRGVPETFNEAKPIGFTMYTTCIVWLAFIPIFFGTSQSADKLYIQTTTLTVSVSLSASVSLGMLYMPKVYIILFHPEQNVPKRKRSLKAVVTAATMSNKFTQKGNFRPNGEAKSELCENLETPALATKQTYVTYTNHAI

## SNAP-mGluR7 (from UniProt P35400 35-915) (receptor)
SNAP-mGluR7 (rat)
  binding: binds
CLIP-mGluR2 (rat)
  binding: binds

## SNAP-mGluR8 (from UniProt P70579 34-908) (receptor)
SNAP-mGluR8 (rat)
  binding: binds

## SNAP-mGluR4(G131T, G137T, G140E) (from UniProt P31423 33-912) (receptor)
CLIP-mGluR2 (rat)
  binding: binds

## SNAP-mGluR4 (from UniProt P31423 33-912) (receptor)
SNAP-mGluR4 (rat)
  binding: binds
CLIP-mGluR2 (rat)
  binding: binds

## SNAP-mGluR7(mGluR4 residues 202–271) (from UniProt P35400 35-201; P31423 202-271; P35400 274-915) (receptor)
[1]
  binding: binds

## SNAP-mGluR7(T131G, T137G, E140G) (from UniProt P35400 35-915) (receptor)
CLIP-mGluR2 (rat)
  binding: binds

## SNAP-mGluR2 (from UniProt P31421 19-872) (receptor)
SNAP-mGluR2 (rat)
  binding: binds
